Results as given in PubChem BioAssay (NCATS).
Inconclusive means that the source gave no clear call. Such entries were picked first, then a sample of the others. Where the call is inconclusive, the potency comes from a doubtful curve fit. Active and inactive are the calls of the source. Unless noted, calls follow the shape of the dose curve; as a rule, active = well fitted curve in the direction sought with a large enough effect; inconclusive = small, poorly fitted or top-dose-only effect, or another doubt; inactive = no such curve, though single readings can be large; an effect the other way counts as inactive or inconclusive.

Protein sequences, listed by entry. Tags and fused reporters are not part of them. Lines headed by an entry give the natural chain unless they say otherwise; changes in a name come on top.
UniProt P05177, whole entry, looked up: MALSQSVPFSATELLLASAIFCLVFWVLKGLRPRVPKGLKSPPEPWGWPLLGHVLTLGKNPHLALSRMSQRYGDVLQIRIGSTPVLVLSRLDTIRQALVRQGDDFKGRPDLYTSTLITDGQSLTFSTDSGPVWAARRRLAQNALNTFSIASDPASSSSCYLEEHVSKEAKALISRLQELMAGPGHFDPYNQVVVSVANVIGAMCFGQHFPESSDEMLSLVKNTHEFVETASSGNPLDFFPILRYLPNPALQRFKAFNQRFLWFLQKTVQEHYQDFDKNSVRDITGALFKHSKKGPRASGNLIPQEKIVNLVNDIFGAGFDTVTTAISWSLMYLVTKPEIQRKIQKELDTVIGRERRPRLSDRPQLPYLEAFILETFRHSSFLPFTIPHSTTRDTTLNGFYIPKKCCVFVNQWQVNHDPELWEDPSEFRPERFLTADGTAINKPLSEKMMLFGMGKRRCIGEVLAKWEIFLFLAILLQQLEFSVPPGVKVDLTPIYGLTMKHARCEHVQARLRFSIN
UniProt O75469: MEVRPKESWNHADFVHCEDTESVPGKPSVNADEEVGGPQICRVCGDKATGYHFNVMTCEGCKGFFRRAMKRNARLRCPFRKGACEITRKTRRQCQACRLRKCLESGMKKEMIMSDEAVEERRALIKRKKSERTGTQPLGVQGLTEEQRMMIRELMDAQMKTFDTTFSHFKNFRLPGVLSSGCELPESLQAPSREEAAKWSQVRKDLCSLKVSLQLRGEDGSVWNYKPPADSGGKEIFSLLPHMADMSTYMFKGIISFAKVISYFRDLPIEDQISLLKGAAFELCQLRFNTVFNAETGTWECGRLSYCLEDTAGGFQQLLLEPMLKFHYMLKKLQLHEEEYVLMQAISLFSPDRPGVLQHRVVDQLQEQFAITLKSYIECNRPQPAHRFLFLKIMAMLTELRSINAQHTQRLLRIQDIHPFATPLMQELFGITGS

How the values were obtained:
[1] = Quantitative High-Throughput drug screen in 47 multiple myeloma cell lines against the NCATS MIPE library collection: XG6_PLB cell viability assay (AID 1919865); settings: XG6 myeloma viability, CellTiter-Glo ATP luminescence, 48 h; viability (% of control): at 45.8 µM (top of the series); also: nearly all actives have a fitted effect of over 40% in size
Method in brief: (§1)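 500 cells/well; MIPE 4.0 drugs pin-transferred; 48 h, 37C, 5% CO2. CellTiter-Glo, 5 min RT, luminescence. Controls: DMSO 100%, media 0%.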

[2] = qHTS for identification of novel therapeutic agents for treatment of microphthalmiaassociated transcription factor (MiT) renal cell carcinoma (RCC) (AID 1963991; calls by dose curve); settings: TFE3-RCC UOK109 viability, CellTiter-Glo, 48 h; active = Z-AUC below -0.8 in all three lines
Method in brief: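 UOK109/UOK124/UOK145 (TFE3 fusions, three partners); 500 cells/well; MIPE v4.0, 1912 cpds, 11 conc.; 48 h, 37 C; CellTiter-Glo, 15 min RT; lum. Norm.: DMSO 100%, empty 0%.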

[3] = Quantitative High-Throughput drug screen in 47 multiple myeloma cell lines against the NCATS MIPE library collection: UTMC2_PLB cell viability assay (AID 1919868); settings: CellTiter-Glo ATP luminescence, 48 h; series mostly up to 45.8 µM; also: nearly all actives have a fitted effect of over 55% in size
Method in brief: as §1

[4] = Quantitative High-Throughput drug screen in 47 multiple myeloma cell lines against the NCATS MIPE library collection: RPMI8226_ATCC cell viability assay (AID 1919871); also: nearly all actives have a fitted effect of over 30% in size
Method in brief: as §1

[5] = Quantitative High-Throughput drug screen in 47 multiple myeloma cell lines against the NCATS MIPE library collection: PCM6_Riken cell viability assay (AID 1919870); settings: CellTiter-Glo ATP, 48 h; viability (% of control): at 45.8 µM (top of the series); also: nearly all actives have a fitted effect of over 30% in size
Method in brief: as §1

[6] = Quantitative High-Throughput drug screen in 47 multiple myeloma cell lines against the NCATS MIPE library collection: KMS11_JCRBsus cell viability assay (AID 1919873); settings: KMS11 myeloma viability, CellTiter-Glo ATP luminescence, 48 h; viability (% of control): at 45.8 µM (top of the series); also: nearly all actives have a fitted effect of over 50% in size
Method in brief: as §1

[7] = Quantitative High-Throughput drug screen in 47 multiple myeloma cell lines against the NCATS MIPE library collection: KMS28BM_JCRB cell viability assay (AID 1919874); also: nearly all actives have a fitted effect of over 35% in size
Method in brief: as §1

[8] = Quantitative High-Throughput drug screen in 47 multiple myeloma cell lines against the NCATS MIPE library collection: PE2_PLB cell viability assay (AID 1919869); settings: PE2_PLB myeloma cells viability, ATP luminescence, 48 h; viability (% of control): at 45.8 µM (top of the series); also: nearly all actives have a fitted effect of over 35% in size
Method in brief: as §1

[9] = Quantitative High-Throughput drug screen in 47 multiple myeloma cell lines against the NCATS MIPE library collection: VP6_DJ cell viability assay (AID 1919867); settings: ATP luminescence, 48 h; series mostly up to 45.8 µM; also: nearly all actives have a fitted effect of over 40% in size
Method in brief: as §1

[10] = Quantitative High-Throughput drug screen in 47 multiple myeloma cell lines against the NCATS MIPE library collection: XG1_PLB cell viability assay (AID 1919866); settings: CellTiter-Glo ATP, 48 h; viability: at 45.8 µM (top of the series); also: nearly all actives have a fitted effect of over 35% in size
Method in brief: as §1

[11] = qHTS profiling for inhibitors of Plasmodium falciparum proliferation (AID 504749); also: nearly all actives have a fitted effect of over 60% in size; settings: P. falciparum in erythrocytes, SYBR Green DNA, 72 h; Potency: parasite line B unless noted; series mostly up to 28.7 µM
Method in brief: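 SYBR Green fluorescence (ex 485 nm, em 535 nm) reports parasite DNA after 72 h compound exposure of infected red cells at 0.3% parasitemia, 2.5% hematocrit; signal normalized to 0.29 uM artemisinin and vehicle wells.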

[12] = molecular target: Cytochrome P450 1A2 (Homo sapiens) (UniProt P05177); assay: qHTS for inhibitors of CYPIA2 against the NCATS DSHEA and TCM libraries (AID 1919976); settings: recombinant CYP1A2 enzyme activity, luminescence
Method in brief: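 Furafylline served as the plate control. Compounds met CYP1A2 and pro-luciferin substrate 15 min before NADPH regeneration solution (1x) was added; after 30-45 min at RT, P450-Glo reagent was added for 30 min and luminescence was measured.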

[13] = molecular target: Nuclear receptor subfamily 1 group I member 2 (Homo sapiens) (UniProt O75469); assay: Dual reporter qHTS for agonist of Pregnane X Receptor (hPXR) against the NCATS DSHEA and TCM libraries: Luminescence readout (AID 1920059); settings: hPXR dual reporter cells, luciferase luminescence agonist
Method in brief: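 hPXR-Luc HepG2 cells, 2000/well in 5% charcoal-stripped FBS medium, attached 5 h, then exposed 24 h at 37C to compounds. Viability by CellTiter-Fluor, then luciferase luminescence with ONE-Glo.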
Potency is read from the fitted curve at half-maximal effect.

## COC(=O)Nc1ccc(-c2nc(N3CCOCC3)c3cnn(C4CCN(C(=O)OC)CC4)c3n2)cc1
[1]
  Potency: inconclusive: 0.0662 µM [cytotoxic, full curve]
[2]
  Potency: inconclusive: 0.264 µM [falling, full curve]

## O=C1C(Cl)=C(NCCN2CCOCC2)C(=O)c2ncccc21
[1]
  Potency: active: 7.43 µM
[3]
  Potency: active: 8.33 µM
[4]
  Potency: active: 9.35 µM
[2]
  Potency: inconclusive: 8.33 µM [falling, full curve]

## CCC1(c2ccccc2)C(=O)NCNC1=O
[1]
  Potency: active: 2.09 µM
[3]
  Potency: inconclusive: 0.662 µM [cytotoxic, full curve, poor fit]
[5]
  Potency: active: 3.72 µM
[4]
  Potency: inconclusive: 0.372 µM [rising, full curve]
[6]
  Potency: inactive
[7]
  Potency: inactive
[2]
  Potency: inconclusive: 5.9 µM [falling, partial curve]

## O=C(O)Cc1cccc(OCCCN(Cc2cccc(C(F)(F)F)c2Cl)CC(c2ccccc2)c2ccccc2)c1
[1]
  Potency: inconclusive: 14.8 µM [cytotoxic, partial curve, poor fit]
[3]
  Potency: inconclusive: 37.2 µM [cytotoxic, partial curve, poor fit]
[6]
  Potency: inconclusive: 33.2 µM [cytotoxic, single point]
[7]
  Potency: inconclusive: 18.7 µM [cytotoxic, partial curve]

## O=C(O)[C@@H](c1ccc(OCc2ccc3ccccc3n2)cc1)C1CCCC1
[1]
  Potency: inconclusive: 11.8 µM [cytotoxic, single point]
[3]
  Potency: inconclusive: 0.0083 µM [cytotoxic, full curve, poor fit]
[8]
  Potency: inactive
[5]
  Potency: inactive
[4]
  Potency: inconclusive: 0.0047 µM [cytotoxic, full curve, poor fit]
[6]
  Potency: inconclusive: 5.26 µM [cytotoxic, partial curve, poor fit]
[7]
  Potency: inconclusive: 0.118 µM [cytotoxic, full curve, poor fit]

## CC(C)(C(=O)NCC(F)(F)C(F)(F)F)C(=O)N[C@@H]1C(=O)Nc2ccccc2-c2ccccc21
[1]
  Potency: active: 16.6 µM
[9]
  Potency: inconclusive: 4.69 µM [cytotoxic, partial curve, poor fit]
[6]
  Potency: inconclusive: 0.0935 µM [cytotoxic, full curve, poor fit]
[2]
  Potency: inconclusive: 3.32 µM [falling, partial curve]

## NS(=O)(=O)c1cccc2c1C(=O)c1cccc(O)c1C2=O
[1]
  Potency: active: 0.372 µM
[8]
  Potency: active: 0.187 µM
[2]
  Potency: inconclusive: 16.6 µM [falling, partial curve]

## c1ccc2[nH]c(-c3cscn3)nc2c1
[10]
  Potency: inactive
[9]
  Potency: inactive
[3]
  Potency: inconclusive: 2.09 µM [rising, full curve, poor fit]
[11]
  Potency: inconclusive: 10 µM [inhibitor, single point] [parasite line A]

## CS(=O)c1ccc(-c2nc(-c3ccc(F)cc3)c(-c3ccncc3)[nH]2)cc1 (stereo unspecified)
[10]
  Potency: active: 38.2 µM
[9]
  Potency: active: 7.62 µM
[5]
  Potency: inconclusive: 34 µM [cytotoxic, partial curve]
[4]
  Potency: inconclusive: 30.3 µM [cytotoxic, partial curve, poor fit]
[6]
  Potency: inconclusive: 42.9 µM [cytotoxic, partial curve]
[7]
  Potency: inconclusive: 76.2 µM [cytotoxic, single point]
[2]
  Potency: inconclusive: 17.1 µM [falling, partial curve]

## Cc1ccc(-n2nc(C(C)(C)C)cc2NC(=O)Nc2ccc(OCCN3CCOCC3)c3ccccc23)cc1
[10]
  Potency: inconclusive: 5.26 µM [cytotoxic, partial curve]
[3]
  Potency: active: 4.18 µM
[6]
  Potency: inconclusive: 14.8 µM [cytotoxic, partial curve, poor fit]
[2]
  Potency: inconclusive: 20.9 µM [falling, partial curve]

## CCOc1ccc(Cc2cc([C@@H]3O[C@H](CO)[C@@H](O)[C@H](O)[C@@H]3O)ccc2Cl)cc1
[10]
  Potency: inconclusive: 5.9 µM [cytotoxic, full curve]
[3]
  Potency: inconclusive: 18.7 µM [cytotoxic, partial curve, poor fit]
[8]
  Potency: inactive
[5]
  Potency: inconclusive: 26.4 µM [cytotoxic, single point]
[6]
  Potency: inactive

## CCCCN(CCCC)CCC(O)c1cc2c(Cl)cc(Cl)cc2c2cc(C(F)(F)F)ccc12 (stereo unspecified)
[10]
  Potency: active: 18.7 µM
[3]
  Potency: inconclusive: 0.001 µM [cytotoxic]
[8]
  Potency: inconclusive: 20.9 µM [cytotoxic, partial curve]
[5]
  Potency: inconclusive: 23.5 µM [cytotoxic, partial curve, poor fit]
[6]
  Potency: inactive

## COc1ccc(-c2coc3cc(O)ccc3c2=O)cc1
[10]
  Potency: inactive
[9]
  Potency: inactive
[7]
  Potency: inconclusive: 0.935 µM [cytotoxic, full curve, poor fit]
[12]
  Potency: inconclusive: 15.8 µM [inhibitor, partial curve]
[13]
  Potency: inconclusive: 25.1 µM [activator, partial curve]
